# Measurements taken from the supplement of paper PMC10338343.
# ± gives the standard deviation. This is a selection; strong and weak results do not stand in their true shares. Many entries were measured with a wide error.
# Test system: MIWI (PIWIL1) piRISC loaded with L1MC piRNA (30 nt)
# Assay: pre-steady-state target cleavage rate (min^-1); MIWI and MILI are mouse PIWI proteins and EfPiwi is from a freshwater sponge; tags in brackets are library labels; higher = faster piRNA-guided slicing of the target
# Settings: guide: L1MC piRNA 5'p-UAACUAAAUACUAUGCAAGCUGUAGGUCCU; auxiliary factor: 500 nM mouse GTSF1
# Summary of the method: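 Using HEPES–potassium acetate buffer at 33 °C, 1 nM active affinity-purified piRISC with a single synthetic guide was mixed with 0.1 nM transcribed, DNA-blocked target RNA library for 0–8 or 0–960 min, with or without 500 nM GTSF1 partner protein. Uncleaved targets were sequenced and normalised to depth and to weakly complementary targets, and three trials were pooled with k3 capped at 0.0001 min^-1. A burst-and-steady-state fit gave the pre-steady-state cleavage rate.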
row,Sequence,pre-steady-state target cleavage rate
1,UCCUGGAUGUCGAACGUAAGUUUUUAGAUA,0.00014 ± 0.029
2,UCCUGGAUGUCGAACCAUAGUAUUUUCUUA,0.000202 ± 0.029
3,UCGACCUACAGCUUGCAUAUUAUUUAGUUA,1.5 ± 0.072
4,UCGACCUACAGCUUGAAUAGUAUUUAGUUA,1.48 ± 0.05

# Same assay, conditions: guide: L1MC piRNA 5'p-UAACUAAAUACUAUGCAAGCUGUAGGUCCU; auxiliary factor: none (no GTSF1)
row,Sequence,pre-steady-state target cleavage rate
1,UCCUGGAUGUCGAACGUAAGAUAUUAGUUA,0.000103 ± 0.056
2,UCCUGGAUGUCGAACCAUAGUAUCUAGUUA,0.000227 ± 0.021
3,AGGACCUACAGCUUGCAUAGUAUAUACAAA,0.00196 ± 0.0051
4,UCCACCUACAGGAUGCAUAGUAUUUACAAA,0.000795 ± 0.0072
5,UCCUGGAUGUCGAACGUUAGUUAUUUAGUUA,0.000459 ± 0.016
6,UCGACCUACAGCUUCCAAAGUAUUUAGUUA,0.00148 ± 0.0027
7,UCGACCUACAGCUUGCAUACAAUUUAGAAA,0.00132 ± 0.0053
8,UCCACCUACUCGUUGCAUAGUAUUUUCAAA,0.000893 ± 0.0047
9,UCCACCUACAGCUUGCAUAGUUAUUAGUAA,0.00238 ± 0.0034
10,UCGACCUUGAGCUUGCAUAGUAUUUUCAAA,0.00201 ± 0.0026
11,UCGACCUACAGCUUGCAUAGUAUUUUCAAA [g6:g28:cont:t1A],0.00274 ± 0.0038
12,UCCACCUACAGCUUGCAGUAGUAUUUAGUUA,0.000755 ± 0.011
13,UCCACCUACAGCUUGCAUAGUAUUAACAAA,0.00169 ± 0.004
14,UCGACCUACAGCUUGCAUAGUAUAAACAAA,0.00113 ± 0.0049
15,UCCUGGAUGUCGAACCAUAGUAGUUAGUUA,0.000152 ± 0.031
16,UGGACCUACAGCUUCCAUACUAUUUAGUUA,0.000719 ± 0.0064
17,ACCUCCUACAGCUUGCAUAGUAUUUUCAAA,0.00225 ± 0.0042
18,UCGACCUACAGCUUGCAUAGAUAUUACAAA,0.000755 ± 0.0089

row,Sequence,pre-steady-state target cleavage rate
1,UCGACCUACAGGAUGCAUAGUAUUUACAAA,0.00098 ± 0.0075
2,UGGACCUACAGCUUGCUAAGUAUUUAGAAA,0.000406 ± 0.0068
3,UGGACCUACACGUUGCAUAGUAUUUAGAAA,0.00209 ± 0.003
4,UCGACCUACAGCUUGCAUAGUAUAAAGAAA,0.00161 ± 0.0041
5,UCGACCUACAGCUUGCUUAGUAUUUUCAAA,0.00118 ± 0.0054
6,UGGACCUACAGCUUCGAUAGUAUUUAGUAA,0.00115 ± 0.0035
7,UCCUGGAUGUCGAAGCAUAGUAUUUAGUGA,0.00137 ± 0.0041
8,AGGACCUACAGCUUGCAAUGUAUUUACAAA,0.00119 ± 0.0053
9,UCCACCUAGUGCUUGCAUAGUAUUUUCAAA,0.00118 ± 0.0025
10,UCCACCUACAGCUUGCAUUCUAUUUACAAA,0.000584 ± 0.0092
11,UGGACCUACAGCUUGCAUAGUUAAUACAAA,0.000381 ± 0.0067
12,AGGUGGUACAGCUUGCAUAGUAUUUACAAA,0.00239 ± 0.0025
13,AGGACCUACAGCUUGCAAUCUAUUUAGUAA,0.00122 ± 0.0065
14,ACCACCUACAGCUUGCAUAGUAUUUUCAAA,0.00359 ± 0.0036
15,UCCUGCUACAGCUUGCAUAGUAAAAUCAAA [g9:g25:cont:t1A],0.000402 ± 0.014
16,AGGACCUACAGCUUGCAUAGUAUAAACAAA,0.00176 ± 0.0045
17,UCGACCUACAGCUUGGUUAGUAUUUAGAAA,0.00161 ± 0.0031
18,UCCUGGAUGUCGAACGUUUGUAUUUAGUUA,0.000187 ± 0.026

# Single entries from the list.
# UCGACCUACAGCUUGCUUAGUAUUUUCAAA | pre-steady-state target cleavage rate: 0.00118 ± 0.0054
# UCCUGCUACAGCUUGCAUAGUAAAAUCAAA [g9:g25:cont:t1A] | pre-steady-state target cleavage rate: 0.000402 ± 0.014
# UGGACCUACAGCUUCGAUAGUAUUUAGUAA | pre-steady-state target cleavage rate: 0.00115 ± 0.0035
